Laboratory results reported in PMC10163288.
Some of the results follow.

B1: il10ra_site1_sap_22_mot_HHH_b1_00999_000000080_0001_41_55_H_._HHH_b1_02412_af2_0001_0000600059_0000001_0_0001 (protein)
chain: SSSSEEWFERFKELIERITQALQEGDEEKVEKLLKEIEELAEEANNPVLRFVVELLEEALNSSSS
B2: il10ra_site1_normal_mot_HHH_b1_05587_000000266_0001_24_40_H_._HHH_b2_03370_0001_0000200005_0000001_0_af2pred_0001 (protein)
chain: SSSSSDEEERLRLAALDLEVNLKAGNEEAAKRVAKALLFLARQANDEEAEREAEEVLRELSSSSS
B3: il10ra_site1_normal_mot_HHH_b1_07380_000000129_0001_1_20_H_._HHH_b2_05268_0001_0000100004_0000001_0 (protein)
chain: SSSSTEESRELYELSREALELLAEGDPEEAREVVEEAREIAEEAGNFNFLFAIEHLLQDINSSSS
B4: il10ra_site1_normal_mot_HHH_b1_05326_000000242_0001_1_20_H_._HHH_b2_05780_af2_0001_0000300018_0000002_0 (protein)
chain: SSSSDERERALEISVHAFRALLRGNPEEAERLLEEALELAERLNDERLARLIEELLKVIGSSSSS
B5: il10ra_site1_sap_19_mot_2fa031a62b9321f410fa37cb4b35ac9e_0001_af2_000000160_0001_1_14_H_._HHH_b2_08251_af2_0001_0000200005_0000002_0_0001 (protein)
chain: SSSSSDQEEAVELSLEAFRLALRGDPEEARRVLEEALELAEEAGDERMAKVIRDMLRALSSSSSS
B6: il10ra_site1_sap_21_mot_HHH_b2_08172_af2_000000094_0001_41_56_H_._d0e8961964c3861271c3cee42b2d364a_0001_1_0001_0000200014_0000001_0_0001 (protein)
chain: SSSSDAHDEIYELLRRAIELAKEGNPEEAQELLKEAKELAEEQGNEAMRYIIESVEEYVNSSSSS
B7: il10ra_site1_normal_mot_HHH_b1_04771_000000013_0001_40_56_H_._HHH_b1_02816_af2_0001_0000100001_0000001_0 (protein)
chain: SSSSDEEQRVVELSTEAFRLALRGNPEEAREVLEEAKELAEELGDERLLKMVEDLLQALESSSSS
B8: il10ra_site1_normal_mot_HHH_b2_06230_000000269_0001_23_39_H_._HHH_b1_07932_af2_0001_0000100001_0000002_0 (protein)
chain: SSSSDEEEIEKLLEELREALERGDEELFTRILDRVMRLIIELGDRELAEELQHLFRLVSRLSSSS
B9: il10ra_site1_sap_19_mot_HHH_b1_06415_af2_000000162_0001_43_56_H_._HHH_b1_05104_af2_0001_0000500031_0000001_0_0001_af2pred_0001 (protein)
chain: SSSSSRIEELLKRLLRAIERAIELGDEETARLAIRLAEKLAKEHNNEEILEELERLKEEISSSSS
B10: il10ra_site1_normal_mot_HHH_b2_04680_000000215_0001_1_16_H_._HHH_b1_07510_0001_0000500033_0000001_0 (protein)
chain: SSSSSSEELREAYRLIREAFEIEDPEEARKVVEEALELAEEANNEVFAFSIRHLLRDLRSSSSSS
B11: il10ra_site1_normal_mot_HHH_b2_05323_000000159_0001_1_18_H_._HHH_b2_06969_0001_0000200011_0000002_0 (protein)
chain: SSSDENQRALELSLEAFRLALRGNPEEAEELLREALELAEEGGNEQLFRTIEELLRALERGSSSS
B12: il10ra_site1_sap_14_mot_b26a303360aa2756ef5b79665ce52f45_0001_000000179_0001_1_11_H_._HHH_b1_02861_af2_0001_0000200013_0000002_0_0001 (protein)
chain: SSSSDEEYREEVERLLEEVERIDNPDEAYRLLKEAIELAAELGDQELFRLIMEVIREWLNSSSSS
B13: il10ra_site1_sap_14_mot_HHH_b2_02337_000000026_0001_38_52_H_._HHH_b2_04470_0001_0000100009_0000001_0_0001 (protein)
chain: SSSSSSREEVLRLSQEAFHLLLRGDPEEAKEVLEEARELAEELGDERLLKVIRDLLKVIDSSSSS
B14: il10ra_site1_sap_19_mot_e1dd4851c59bc1cdde016f988f6856bd_0001_1_000000200_0001_16_31_H_._HHH_b2_03133_0001_0000700045_0000002_0_0001 (protein)
chain: SSSSDVAQRIAELLRRAVELLNEGNPEEAEELVEEALELAQENNNQLLAHNAEFVLRDVRSSSSS
B15: il10ra_site1_sap_16_mot_HHH_b2_00943_af2_000000149_0001_1_17_H_._HHH_b1_01109_af2_0001_0000300014_0000001_0_0001 (protein)
chain: SSSSDLEELVKAALRLAEQAAKWGDPRAARLLLEALEELLERENNPELLEEVERLLEELNSSSSS
B16: il10ra_site1_sap_21_mot_HHH_b2_02463_af2_000000222_0001_1_19_H_._HHH_b1_01285_0001_0000200013_0000001_0_0001 (protein)
chain: SSSSDEANQEALELVVEAVRLALRGNPEEAKEVLEEARELAREGNNERLVKMIEDMLRALDSSSS
B17: il10ra_site1_normal_mot_HHH_b2_03039_af2_000000183_0001_1_19_H_._HHH_b2_04021_0001_0000200019_0000001_0 (protein)
chain: SSSSQEEELSEFLRRLLRELLERGDEEFLESLLRAAEESAKALNDEELEEEVEEIERELKSSSSS
B18: il10ra_site1_sap_25_mot_HHH_b1_01849_000000247_0001_21_38_H_._HHH_b1_06582_0001_0000100008_0000001_0_0001 (protein)
chain: SSTVEELAEEAQKILEELAELNPENRWAARFWAHILRVAVELNNEEHVESVARAVRALEEALSSS
B19: il10ra_site1_sap_11_mot_HHH_b1_06348_000000162_0001_1_15_H_._HHH_b2_04994_af2_0001_0000100006_0000001_0_0001 (protein)
chain: SSSSDERFELVEEAIKEAKELWEQGNEEEARKLIEEALERLEEEGDWVALAALEHLLKVLSSSSS
B20: il10ra_site1_normal_mot_HHH_b2_07488_000000216_0001_1_17_H_._HHH_b1_07994_0001_0000200015_0000001_0 (protein)
chain: SSSSTQEASELFVRIVELIEEGDEEEARRLIEELEEIAEKLNDPKARLSLRFIRALLEAYFSSSS
B21: il10ra_site1_sap_17_mot_HHH_b1_00942_af2_000000135_0001_43_54_H_._HHH_b2_01999_af2_0001_0001000029_0000001_0_0001_af2pred_0001 (protein)
chain: SSSSEELERSVRLLLELARLALELGDPETAKLSLREAEILARIMGDEELLEELEELLREIRSSSS
B22: il10ra_site1_sap_24_mot_HHH_b1_02997_000000220_0001_39_52_H_._HHH_b1_00066_0001_0000400019_0000001_0_0001 (protein)
chain: SSSSSEVEELYRLIRELNELVKRGDEEEFEKLYEEVHKLAEETNTAWARAVLRLLQRQVESSSSS
B23: il10ra_site1_sap_21_mot_HHH_b1_08477_000000091_0001_40_57_H_._HHH_b2_00893_0001_0000600036_0000001_0_0001 (protein)
chain: SSSSDAAHRVYELSRRAMEALAEGNPEEAREILEEAIELAEEGGNRVLLHVAEYALRQVEGSSSS
B24: il10ra_site1_normal_mot_HHH_b1_05185_000000011_0001_22_39_H_._HHH_b2_02050_0001_0000900035_0000001_0_af2pred_0001 (protein)
chain: SSSSSSSRRLRHLLKALKQILELNDEERAKLTARVALHLAEELGDEEVLEELQKILEELSSSSSS
B25: il10ra_site1_normal_mot_HHH_b2_05686_000000041_0001_1_18_H_._HHH_b2_06530_0001_0000100014_0000001_0 (protein)
chain: SSSDTARRSLEFAIKLAKELLELGDPERARLVVREAVKFARQLGDEELLKLAEELLEEIEKSSSS
B26: il10ra_site1_sap_13_mot_2fa031a62b9321f410fa37cb4b35ac9e_0001_af2_000000160_0001_1_14_H_._HHH_b1_00672_0001_0000300018_0000001_0_0001 (protein)
chain: SSSSTSEELEQLLHELWRAVKRNDKELARELTEQIEELAEELGNRAAKFLAKQALKAVELVSSSS
B27: il10ra_site1_normal_mot_HHH_b2_00441_000000175_0001_1_18_H_._HHH_b1_00478_af2_0001_0000100001_0000001_0 (protein)
chain: SSSSDEDERYAKLSLRFIEALLKDGDPEAARLMLHALRQIVERVGDPELEEILQEAEELVNSSSS
B28: il10ra_site1_normal_mot_HHH_b2_05343_000000235_0001_19_35_H_._ems_3hC_444_0001_af2_0001_0000200008_0000002_0 (protein)
chain: SSDEHQEFFRVVREAIEAASEKDEEEAEELVKEAEKIAEEIGNLVAEAIVKFVKRQVELLRSSSS
B29: il10ra_site1_normal_mot_HHH_b2_04057_000000065_0001_1_20_H_._HHH_b2_03519_0001_0000200024_0000002_0 (protein)
chain: SSSSDEEEEEVRELLEEARRIEDPDEVYRLIREAIEIATELGDPEVIRLVLEFSREWIEGSSSSS
B30: il10ra_site1_normal_mot_HHH_b2_07144_000000289_0001_1_18_H_._HHH_b2_01788_0001_0000100002_0000001_0 (protein)
chain: SSSSDEESREAYELSREAAELLRKGNPEEARKVLEEAERLAEEANNPAFLFSLEHLLRVLNSSSS
B31: il10ra_site1_normal_mot_HHH_b1_06789_af2_000000041_0001_1_20_H_._HHH_b2_02576_0001_0000300019_0000001_0 (protein)
chain: SSSSSSDEEVEELAEEAIEKAPDEAARFLLRQALKALRLAGDPRAERILENLARIILGSSSSSSS
B32: il10ra_site1_normal_mot_b26a303360aa2756ef5b79665ce52f45_0001_000000179_0001_1_11_H_._HHH_b2_07664_af2_0001_0000100004_0000001_1_af2pred_0001 (protein)
chain: SSSSSDERKEAVELARRVAELYAEGDEEEAEKVAEEAIEIARELGSRLIVHNLEHLLRRASSSSS
B33: il10ra_site1_normal_mot_HHH_b2_08186_000000021_0001_43_56_H_._HHH_b1_05595_af2_0001_0000200009_0000001_0 (protein)
chain: SSSSDLEERIRELEEEIRELEERGDRERVLRLLQEILQLIYKAKDQEALKELWELLQRLRSSSSS
B34: il10ra_site1_normal_mot_HHH_b1_00566_000000151_0001_22_39_H_._HHH_b1_00313_af2_0001_0000700014_0000001_0 (protein)
chain: SSSSDEREEIAILVAEAIILAERRGDKEVAEELWQLLVEAYYHGDPELFREVEELAEKFLSSSSS
B35: il10ra_site1_normal_mot_65b8060e20531850bca9f2e11f97d954_0001_af2_000000137_0001_17_31_H_._HHH_b1_03310_0001_0000100015_0000002_0_af2pred_0001 (protein)
chain: SSSSDEEIQRVAELYVKAAQLLDEGNPEEAHKLLEEMEELAEEGNNEKLRLTVRFLKALIESSSS
B36: il10ra_site1_sap_15_mot_HHH_b2_02537_000000065_0001_1_20_H_._HHH_b2_07368_0001_0000300027_0000002_1_0001 (protein)
chain: SEEEREEIQRLFHELWEAFEKEDEELIKEIIKKIKEFVEEYSEDPAAMILLHVAEAAEKVVRSKS
B37: il10ra_site1_normal_mot_HHH_b1_06994_000000193_0001_40_55_H_._HHH_b1_08627_0001_0000200009_0000001_0 (protein)
chain: SSSSDKEERELIRAAIRLAKQVYEAGDDRSARFLLWSAEFLAEELGDEELRREIEELEEEISSSS

target: il10ra, Q13651; assay: yeast display titration

Apparent Kd, active:
B34 233 to 399 nM

Apparent Kd, inactive:
B1 no binding seen
B2 no binding seen
B3 no binding seen
B4 no binding seen
B5 no binding seen
B6 no binding seen
B7 no binding seen
B8 no binding seen
B9 no binding seen
B10 no binding seen
B11 no binding seen
B12 no binding seen
B13 no binding seen
B14 no binding seen
B15 no binding seen
B16 no binding seen
B17 no binding seen
B18 no binding seen
B19 no binding seen
B20 no binding seen
B21 no binding seen
B22 no binding seen
B23 no binding seen
B24 no binding seen
B25 no binding seen
B26 no binding seen
B27 no binding seen
B28 no binding seen
B29 no binding seen
B30 no binding seen
B31 no binding seen
B32 no binding seen
B33 no binding seen
B35 no binding seen
B36 no binding seen
B37 no binding seen

A stretch taken from the entries so far, for reference:
Apparent Kd, inactive:
B24 no binding seen
B25 no binding seen
B26 no binding seen
B27 no binding seen
B28 no binding seen
B29 no binding seen
B30 no binding seen
B31 no binding seen
B32 no binding seen
B33 no binding seen
B35 no binding seen
